From PMC6226489
Results are given in words; binding and its absence hold for the method and conditions named. In cells and extracts the contact can be indirect. Some results given as binding are weak or reduced against the parent protein; the word gives no strength.

The chains behind the UniProt entries cited, without tags or fusion partners.
UniProt Q9QZS3: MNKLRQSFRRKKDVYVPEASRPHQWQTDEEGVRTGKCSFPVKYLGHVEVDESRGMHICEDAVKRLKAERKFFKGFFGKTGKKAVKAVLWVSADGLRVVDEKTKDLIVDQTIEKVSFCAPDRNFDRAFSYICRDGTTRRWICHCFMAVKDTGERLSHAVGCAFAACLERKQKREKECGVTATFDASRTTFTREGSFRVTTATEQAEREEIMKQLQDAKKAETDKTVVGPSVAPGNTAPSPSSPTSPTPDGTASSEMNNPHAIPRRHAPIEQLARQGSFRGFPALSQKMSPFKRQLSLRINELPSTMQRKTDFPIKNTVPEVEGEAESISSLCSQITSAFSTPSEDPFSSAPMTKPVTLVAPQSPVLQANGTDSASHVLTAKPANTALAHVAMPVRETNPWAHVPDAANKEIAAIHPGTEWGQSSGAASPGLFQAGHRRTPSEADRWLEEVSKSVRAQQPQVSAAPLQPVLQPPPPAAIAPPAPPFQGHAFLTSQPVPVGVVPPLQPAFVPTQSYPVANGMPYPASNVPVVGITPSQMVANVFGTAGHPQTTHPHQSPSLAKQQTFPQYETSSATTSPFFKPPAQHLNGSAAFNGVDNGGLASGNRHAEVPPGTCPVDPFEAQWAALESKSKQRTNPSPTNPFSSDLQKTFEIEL
UniProt P46935: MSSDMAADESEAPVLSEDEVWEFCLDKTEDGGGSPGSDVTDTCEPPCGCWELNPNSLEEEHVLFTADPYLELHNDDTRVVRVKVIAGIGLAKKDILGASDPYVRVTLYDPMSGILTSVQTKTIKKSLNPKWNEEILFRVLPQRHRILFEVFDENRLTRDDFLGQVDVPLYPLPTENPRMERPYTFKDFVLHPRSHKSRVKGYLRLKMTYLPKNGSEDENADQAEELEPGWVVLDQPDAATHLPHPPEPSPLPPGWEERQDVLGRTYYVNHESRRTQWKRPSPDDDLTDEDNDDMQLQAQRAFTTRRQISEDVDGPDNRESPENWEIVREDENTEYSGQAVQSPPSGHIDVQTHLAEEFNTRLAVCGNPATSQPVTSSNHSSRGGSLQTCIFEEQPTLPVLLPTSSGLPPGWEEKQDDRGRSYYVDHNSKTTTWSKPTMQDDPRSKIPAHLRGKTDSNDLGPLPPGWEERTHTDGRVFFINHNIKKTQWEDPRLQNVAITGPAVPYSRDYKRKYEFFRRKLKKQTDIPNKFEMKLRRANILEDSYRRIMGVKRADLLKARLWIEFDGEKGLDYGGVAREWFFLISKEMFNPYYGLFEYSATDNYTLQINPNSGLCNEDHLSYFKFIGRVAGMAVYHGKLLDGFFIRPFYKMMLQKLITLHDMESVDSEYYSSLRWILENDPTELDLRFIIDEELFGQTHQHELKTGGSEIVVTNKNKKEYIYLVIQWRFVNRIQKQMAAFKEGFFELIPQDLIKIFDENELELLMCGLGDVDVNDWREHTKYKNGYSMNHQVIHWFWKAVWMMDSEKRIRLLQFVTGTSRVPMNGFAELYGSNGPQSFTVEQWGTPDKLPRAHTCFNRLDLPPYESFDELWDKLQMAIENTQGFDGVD

What was measured:
[1] = molecular target: phosphatase and tensin homologue deleted on human chromosome 10 (PTEN) (mouse (endogenous in primary calvaria osteoblasts)) (UniProt O08586); assay: co-IP; endogenous proteins in lysate of primary calvaria osteoblasts of two-month-old C57B6J mice; precleared with normal rabbit IgG and protein A + G agarose; immunoprecipitated overnight at 4 °C with anti-NUMB or anti-PTEN; washed five times; Western blot with anti-PTEN, anti-NUMB or anti-NEDD4
[2] = molecular target: NUMB (mouse (endogenous in primary calvaria osteoblasts)) (UniProt Q9QZS3); assay: as above

Row | Substance | binding [1] | binding [2]
1 | NUMB (from UniProt Q9QZS3 1-653) | binds | –
2 | neural precursor cell-expressed developmentally downregulated protein 4-1 (from UniProt P46935 1-887) | – | binds
3 | phosphatase and tensin homologue deleted on human chromosome 10 (PTEN) (from UniProt O08586 1-403) | – | binds
